Test results: PubChem BioAssay AID1508600 (Functional Genomics Laboratory (NCATS/FGL), 2020)
The whole screen tested about 53,000 sequences, of which about 3,700 (7%) were called active.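 The calls were made as follows: active = gene knockdowns whose robust z-score for IL-1 alpha signal is at least 2 or at most -2, so actives lie on both sides; inactive = the rest.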 This is one part of the list.

Assay: Components of the Cytosolic LPS Sensing Pathway: Gene Identification via Genome-wide siRNA Screen;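 also: robust z of the log signal after scaling to non-targeting control siRNA wells of the plate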
Details: RAW264.7 macrophages, IL-1a HTRF, actives lie on both sides, screened at 100 nM (by protocol), cells primed 5 h with Pam3CSK4 first
How it was run: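 RAW264.7 mouse macrophages reverse-transfected with single siRNAs (100 nM final) for 48h, primed with Pam3CSK4 for 5 hours, then transfected with LipidA for 24 hour. Supernatant IL-1a read by HTRF; values normalized to negative-control median, log-transformed robust z-scores.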

Sequence	z-score
CCAUGUGAAAGUAUAAGAATT against Fmo2	inactive: 0.416
GGAAUCCUCGGCAGAUAAATT against Rpl24	active: 2.31
GGACACCAUGCCACAGACATT against Hlx	inactive: -1.43
UUAUGCUGACCUCUAUCUUTT against Akr1c19	active: 2.33
GCAACAAGUUCGAAAUGAATT against Etv6	inactive: 1.23
GGCAUCGUAAAGGACAUCATT against Rpl8	inactive: 1.22
CCCUUUAAACCUCUUCAGATT against St7l	inactive: -0.356
CCAGUAAAAAUUGAAGGCUTT against Capza2	inactive: 0.565
GCUGUCUACAGACAUCGAUTT against Ung	inactive: 0.954
GCUGCUUUGCUAUCUCCUGTT against Apof	active: -2.25
GGAUGAGAACAGCAACCAGTT against Bcl7b	active: -2.22
GGCGAUAUUCUUAAUUAUCTT against Mfsd6	inactive: 0.735
GGACCAUUUCCAUAGAGACTT against Slc10a6	inactive: -0.241
GGAGGUGGAACUGCUGUAUTT against Fam180a	inactive: -0.257
GCUACGUGAGAAUUCCGCCTT against Cux1	inactive: -0.459
GGACAGCCAGGACUUCUCATT against Iah1	inactive: -0.399
GGACAUUAUUAUGGAUGAUTT against Arl2bp	inactive: -1.71
GGAUGUCAGCUGGUGGUUATT against Tmprss6	inactive: -0.607
GGCCAUGAUCAAAACGUAUTT against Leng8	inactive: -1.54
GGACUCUGUCUGUAAACAGTT against Nup43	inactive: -1.01
GGUGCUAAGUAUUCUUAUCTT against Ppp6r3	inactive: 0.15
GGUAAACGGAUGGAAUGGGTT against Gspt2	inactive: -0.0532
GGUACAUGAUCAAUUUAGATT against Tspyl4	inactive: 0.726
GCUUGCUUAUGGCCUAUUATT against Ucma	active: -2.05
GGUAUUGUGGAAAUUCCCATT against Dennd1b	inactive: -1.54
GGCCAUCAAACACCAGGUGTT against Plxnb2	inactive: -1.38
GCUGUCAAGGAUCAUCCCATT against Ano1	inactive: -0.532

3 records picked at random from the list so far:
Sequence	z-score
GCUGCUUUGCUAUCUCCUGTT against Apof	active: -2.25
GCUACGUGAGAAUUCCGCCTT against Cux1	inactive: -0.459
CCAUGUGAAAGUAUAAGAATT against Fmo2	inactive: 0.416

Next records.

Sequence	z-score
GGACAUUCAACUGUACCACTT against Selenom	inactive: 1.34
GCUAAGUUGCUUGUCUUUATT against Acox1	inactive: 0.233
GGUGCAUGACCUGACAAAGTT against Fermt3	active: 2.5
GUACCAGAAGUGAGUUCAGTT against Leap2	active: -2.97
GGUGGAAAGGAACAUUGUGTT against Ppl	inactive: -0.311
CCAAUACCCUCAAGAUUCUTT against Itih5	inactive: 0.318
GGUUAUCUCAAAACUCGACTT against Prox2	inactive: -0.119
GCGUGUGACCAGAUUCGUCTT against Slc1a2	inactive: 0.0872
CGAGUCUCCCUGGACAUUGTT against Rara	inactive: -1.27
GCUUUUGCACUGGAGAAGUTT against Glra3	inactive: -0.918
CCUCAUGAUCAAAGUGCGGTT against Tmprss6	inactive: -0.226
CAUCAAGACAUGACCGUCCTT against AI413582	inactive: 1.25
GGGAAUGACGCAUCUUGAATT against Pdlim5	inactive: 1.47
GGUACACCAAGGCUUGCUATT against Coq8b	inactive: -0.343
CCUUGCUAGCCGCCACUUUTT against Trmt112	inactive: -1.34
GCUGUCAUAAGUACUAAAUTT against Slc37a2	inactive: 1.49
GGAAGACAGAGAAACUCUATT against Clgn	inactive: 2
GACAACUUUUCCCUGUCAUTT against Prm3	inactive: -0.86
CGAAGUUUGACACCUAUAUTT against Tinf2	inactive: -1.16
CCCAAGAUCUAAGAGUAUUTT against Rin3	inactive: -1.18
GGUCUGCUUUGUGCUGAUGTT against Olfr983	inactive: 0.643
UGGCUGAUAUGAAGGUCUGTT against Krtap31-2	inactive: 0.154
GCUGGGAUAUUACAUUCUATT against Thap2	inactive: 1.29
GGAAUAGGAAAUUAGCACATT against Thnsl1	inactive: 1.19
GGGUAACAGAUGAAGGGUCTT against Synpo2l	active: 2.48
GGAAAGUCCUUCCUUUUGGTT against Rnf112	inactive: -0.751
GGCCGUGAAACACUUUCGUTT against Lgi3	inactive: 0.26
